No constants are given. Whether binding was seen depends on the method and setting. In cells and extracts the contact can be indirect. Some binding calls cover weakened binding; strength is not graded here.
Biological target: GFP-tagged WT TRPV4 (human) (UniProt Q9HBA0)
Assay: co-IP

Chains of the proteins cited; added tags and fusions are not shown.
UniProt Q9HBA0: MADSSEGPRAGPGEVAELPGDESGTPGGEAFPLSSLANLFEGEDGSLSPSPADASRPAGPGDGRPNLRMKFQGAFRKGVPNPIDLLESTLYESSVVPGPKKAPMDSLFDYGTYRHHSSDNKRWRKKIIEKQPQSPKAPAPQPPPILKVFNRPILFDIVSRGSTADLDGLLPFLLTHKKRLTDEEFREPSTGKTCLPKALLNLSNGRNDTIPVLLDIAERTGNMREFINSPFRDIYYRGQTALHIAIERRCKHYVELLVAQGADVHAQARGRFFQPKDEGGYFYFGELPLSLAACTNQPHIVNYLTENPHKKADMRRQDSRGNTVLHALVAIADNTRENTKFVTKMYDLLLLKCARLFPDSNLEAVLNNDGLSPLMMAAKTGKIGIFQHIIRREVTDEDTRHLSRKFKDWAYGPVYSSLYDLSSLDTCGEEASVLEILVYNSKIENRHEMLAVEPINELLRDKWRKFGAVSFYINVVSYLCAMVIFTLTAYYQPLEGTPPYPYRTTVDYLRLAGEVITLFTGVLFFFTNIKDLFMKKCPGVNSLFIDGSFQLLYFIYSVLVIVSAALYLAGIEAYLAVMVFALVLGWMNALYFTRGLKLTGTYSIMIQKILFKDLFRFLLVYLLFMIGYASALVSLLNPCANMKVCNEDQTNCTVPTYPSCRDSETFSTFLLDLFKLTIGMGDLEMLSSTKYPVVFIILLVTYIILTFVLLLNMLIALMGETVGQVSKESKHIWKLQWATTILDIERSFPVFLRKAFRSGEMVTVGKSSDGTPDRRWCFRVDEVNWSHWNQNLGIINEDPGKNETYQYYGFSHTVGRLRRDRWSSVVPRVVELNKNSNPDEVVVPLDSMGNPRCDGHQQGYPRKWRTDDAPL
UniProt P61586: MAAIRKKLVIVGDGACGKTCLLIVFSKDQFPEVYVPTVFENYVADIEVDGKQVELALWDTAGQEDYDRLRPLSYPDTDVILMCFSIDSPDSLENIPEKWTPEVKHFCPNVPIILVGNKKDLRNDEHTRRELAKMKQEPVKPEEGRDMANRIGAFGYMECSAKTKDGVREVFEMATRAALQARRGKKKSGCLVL

Myc-tagged WT RhoA (from UniProt P61586 1-193)
binding: binds

Source: paper doi:10.1101/2023.03.15.532784
